The text below walks through data of publication doi:10.1101/2025.03.07.642025, “The TONSL-MMS22L complex and FANCM form an interdependent complex on chromatin to counter replication stress” (bioRxiv, 2025).

Experiment [1] concerns the target T1, Flag-MMS22L (human) (UniProt Q6ZRQ5).
T1 sequence: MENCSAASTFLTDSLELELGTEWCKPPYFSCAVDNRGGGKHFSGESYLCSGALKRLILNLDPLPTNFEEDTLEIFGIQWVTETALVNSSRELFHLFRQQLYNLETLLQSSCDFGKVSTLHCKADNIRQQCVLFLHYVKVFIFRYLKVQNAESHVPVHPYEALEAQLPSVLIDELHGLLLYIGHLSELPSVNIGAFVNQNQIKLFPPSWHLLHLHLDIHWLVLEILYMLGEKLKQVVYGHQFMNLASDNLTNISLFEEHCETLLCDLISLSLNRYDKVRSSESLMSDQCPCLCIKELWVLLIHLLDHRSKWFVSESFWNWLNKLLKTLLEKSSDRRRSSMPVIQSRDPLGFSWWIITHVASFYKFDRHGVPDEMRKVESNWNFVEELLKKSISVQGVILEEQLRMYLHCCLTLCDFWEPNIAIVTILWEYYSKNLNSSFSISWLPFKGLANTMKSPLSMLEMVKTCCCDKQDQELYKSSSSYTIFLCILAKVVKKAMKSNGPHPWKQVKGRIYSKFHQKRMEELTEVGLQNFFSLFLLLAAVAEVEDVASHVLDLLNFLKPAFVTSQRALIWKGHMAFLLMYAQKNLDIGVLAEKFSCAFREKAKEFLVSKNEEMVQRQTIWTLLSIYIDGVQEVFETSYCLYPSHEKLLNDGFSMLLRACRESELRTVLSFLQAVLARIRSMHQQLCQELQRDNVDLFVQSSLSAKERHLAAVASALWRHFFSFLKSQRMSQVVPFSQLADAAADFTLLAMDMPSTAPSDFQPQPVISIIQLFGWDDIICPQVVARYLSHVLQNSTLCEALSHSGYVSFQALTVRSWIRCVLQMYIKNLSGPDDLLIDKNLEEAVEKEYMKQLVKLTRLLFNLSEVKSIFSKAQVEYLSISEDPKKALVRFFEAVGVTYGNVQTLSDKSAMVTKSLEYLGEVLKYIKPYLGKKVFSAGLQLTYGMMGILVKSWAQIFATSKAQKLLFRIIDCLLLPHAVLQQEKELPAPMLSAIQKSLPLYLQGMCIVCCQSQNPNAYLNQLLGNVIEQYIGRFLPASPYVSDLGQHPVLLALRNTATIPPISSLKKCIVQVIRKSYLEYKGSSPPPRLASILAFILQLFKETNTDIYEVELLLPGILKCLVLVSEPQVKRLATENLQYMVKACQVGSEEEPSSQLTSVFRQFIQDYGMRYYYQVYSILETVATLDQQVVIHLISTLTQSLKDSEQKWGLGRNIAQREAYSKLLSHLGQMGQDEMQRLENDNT
Briefly: co-IP; Flag antibody IP from HU-treated HeLa cells stably expressing Flag-TONSL or Flag-MMS22L; immunoblotting; cells without a Flag-tagged protein as controls. For orientation: A western blot detects proteins with antibodies after separation by electrophoresis.

The target in experiment [2] is T2, Flag-TONSL (human) (UniProt Q96HA7).
T2 sequence: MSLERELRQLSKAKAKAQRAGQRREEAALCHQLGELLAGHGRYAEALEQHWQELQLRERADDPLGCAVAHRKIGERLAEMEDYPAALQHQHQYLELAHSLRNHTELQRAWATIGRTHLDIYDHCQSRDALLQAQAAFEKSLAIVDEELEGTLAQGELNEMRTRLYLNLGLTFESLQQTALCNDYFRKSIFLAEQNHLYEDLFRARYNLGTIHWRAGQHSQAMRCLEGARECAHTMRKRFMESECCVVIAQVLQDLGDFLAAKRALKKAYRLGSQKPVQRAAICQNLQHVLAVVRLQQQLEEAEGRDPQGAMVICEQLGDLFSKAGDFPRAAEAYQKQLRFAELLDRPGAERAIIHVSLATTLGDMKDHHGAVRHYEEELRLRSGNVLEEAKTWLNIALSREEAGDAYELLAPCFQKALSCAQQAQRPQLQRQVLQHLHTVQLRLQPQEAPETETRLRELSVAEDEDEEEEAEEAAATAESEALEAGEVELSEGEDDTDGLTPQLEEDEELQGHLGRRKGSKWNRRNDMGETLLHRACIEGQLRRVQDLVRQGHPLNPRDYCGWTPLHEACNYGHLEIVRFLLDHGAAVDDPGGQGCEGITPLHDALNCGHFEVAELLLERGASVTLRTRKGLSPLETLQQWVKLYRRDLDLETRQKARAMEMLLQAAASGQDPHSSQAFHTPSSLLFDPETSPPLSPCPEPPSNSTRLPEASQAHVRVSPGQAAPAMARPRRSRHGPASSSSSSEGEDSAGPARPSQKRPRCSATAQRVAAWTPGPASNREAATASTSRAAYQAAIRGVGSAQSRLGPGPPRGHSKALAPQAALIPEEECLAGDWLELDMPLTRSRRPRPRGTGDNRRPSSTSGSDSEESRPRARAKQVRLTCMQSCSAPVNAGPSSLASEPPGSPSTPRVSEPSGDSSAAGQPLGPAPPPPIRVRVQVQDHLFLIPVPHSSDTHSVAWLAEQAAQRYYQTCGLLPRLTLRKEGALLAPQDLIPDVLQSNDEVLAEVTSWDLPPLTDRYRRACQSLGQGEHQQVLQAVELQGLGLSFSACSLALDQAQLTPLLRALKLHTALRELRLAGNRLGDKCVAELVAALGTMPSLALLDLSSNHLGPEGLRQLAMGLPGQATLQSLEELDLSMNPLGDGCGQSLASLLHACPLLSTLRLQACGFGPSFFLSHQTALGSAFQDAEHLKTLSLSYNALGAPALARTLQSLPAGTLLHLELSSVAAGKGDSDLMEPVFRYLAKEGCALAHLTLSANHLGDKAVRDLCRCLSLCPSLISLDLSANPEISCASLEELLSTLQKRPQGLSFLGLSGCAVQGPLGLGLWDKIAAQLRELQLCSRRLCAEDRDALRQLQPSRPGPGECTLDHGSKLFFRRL
The description is as above.

Results are given in words; binding and its absence hold for the method and conditions named. Binding seen in cells or lysates may run through a third protein. Some entries that bind do so weakly or less than the wild type. Sequences can lack the tags named with a protein.

B1: FANCA (protein, UniProt O15360 1-1455)
chain: MSDSWVPNSASGQDPGGRRRAWAELLAGRVKREKYNPERAQKLKESAVRLLRSHQDLNALLLEVEGPLCKKLSLSKVIDCDSSEAYANHSSSFIGSALQDQASRLGVPVGILSAGMVASSVGQICTAPAETSHPVLLTVEQRKKLSSLLEFAQYLLAHSMFSRLSFCQELWKIQSSLLLEAVWHLHVQGIVSLQELLESHPDMHAVGSWLFRNLCCLCEQMEASCQHADVARAMLSDFVQMFVLRGFQKNSDLRRTVEPEKMPQVTVDVLQRMLIFALDALAAGVQEESSTHKIVRCWFGVFSGHTLGSVISTDPLKRFFSHTLTQILTHSPVLKASDAVQMQREWSFARTHPLLTSLYRRLFVMLSAEELVGHLQEVLETQEVHWQRVLSFVSALVVCFPEAQQLLEDWVARLMAQAFESCQLDSMVTAFLVVRQAALEGPSAFLSYADWFKASFGSTRGYHGCSKKALVFLFTFLSELVPFESPRYLQVHILHPPLVPGKYRSLLTDYISLAKTRLADLKVSIENMGLYEDLSSAGDITEPHSQALQDVEKAIMVFEHTGNIPVTVMEASIFRRPYYVSHFLPALLTPRVLPKVPDSRVAFIESLKRADKIPPSLYSTYCQACSAAEEKPEDAALGVRAEPNSAEEPLGQLTAALGELRASMTDPSQRDVISAQVAVISERLRAVLGHNEDDSSVEISKIQLSINTPRLEPREHMAVDLLLTSFCQNLMAASSVAPPERQGPWAALFVRTMCGRVLPAVLTRLCQLLRHQGPSLSAPHVLGLAALAVHLGESRSALPEVDVGPPAPGAGLPVPALFDSLLTCRTRDSLFFCLKFCTAAISYSLCKFSSQSRDTLCSCLSPGLIKKFQFLMFRLFSEARQPLSEEDVASLSWRPLHLPSADWQRAALSLWTHRTFREVLKEEDVHLTYQDWLHLELEIQPEADALSDTERQDFHQWAIHEHFLPESSASGGCDGDLQAACTILVNALMDFHQSSRSYDHSENSDLVFGGRTGNEDIISRLQEMVADLELQQDLIVPLGHTPSQEHFLFEIFRRRLQALTSGWSVAASLQRQRELLMYKRILLRLPSSVLCGSSFQAEQPITARCEQFFHLVNSEMRNFCSHGGALTQDITAHFFRGLLNACLRSRDPSLMVDFILAKCQTKCPLILTSALVWWPSLEPVLLCRWRRHCQSPLPRELQKLQEGRQFASDFLSPEAASPAPNPDWLSAAALHFAIQQVREENIRKQLKKLDCEREELLVFLFFFSLMGLLSSHLTSNSTTDLPKAFHVCAAILECLEKRKISWLALFQLTESDLRLGRLLLRVAPDQHTRLLPFAFYSLLSYFHEDAAIREEAFLHVAVDMYLKLVQLFVAGDTSTVSPPAGRSLELKGQGNPVELITKARLFLLQLIPRCPKKSFSHVAELLADRGDCDPEVSAALQSRQQAAPDADLSQEPHLF
On to B1, for which the binding result in experiment [1] and in experiment [2] was “binds” throughout.
